Data taken from EP0835125B1, “CD4-DERIVED PEPTIDES THAT INHIBIT IMMUNE RESPONSES” (THOMAS JEFFERSON UNIVERSITY, priority 1995, dated 2004).
At least one peptide structure holds a part that was inferred or is arguable (an end, a ring closure or a residue). Some compounds share one wording; it may come from a single statement. Bridge positions count the residues as written; N and C are the ends. Ends that are not written are not given here. Peptide text beside a SMILES is read from it.

Legend:
[1] = system: murine T cells (spleen responder cells); assay: Murine mixed lymphocyte reaction, 3H-thymidine incorporation; assay type: cell-based, Mice
EAE = EAE inhibition in vivo, SJL EAE model, daily severity score on 0-5 scale; design: species or system mice
Description: The C-C' loop peptides were initially tested for efficacy in the SJL EAE model. In untreated animals, a high incidence of disease was observed 15-22 days after two s.c. inoculations of 1 mg of crude murine spinal cord homogenate in complete Freund's adjuvant. The severity of the disease was scored daily using the established 0-5 scale that describes the level of ascending paresis, Korngold, R., et al., 1986, Immunogenetics 24:309-315. The level of the mean EAE severity grade of mice for the untreated control group reached a maximum of 2.0. […] Also shown are the results of groups of mice that received the rD-mPGPtide, a mimic of residues 86-104 of murine homolog of CD4, which was described in Jameson et al. 1994, Nature 368:744-746.

[2] = system: responder cell alloreactive proliferation (human T cell); conditions: in b95 the words describe the cyclic peptide relative to the linear peptides KNSNQI, KNSNQ, NSNQI (linear ones less active)

| Compound | inhibitory activity in murine MLR, in words [1] | effect on EAE in mice, in words (EAE; b73: 0.5 mg dose i.v. 12 days after immunization) | activity in human MLR / human T cell proliferation in vitro, in words [2] | maximum severity level (mean EAE severity grade) (EAE; 0.5 mg i.v. on day 12, 0-5 scale, untreated control group maximum 2.0) |
| --- | --- | --- | --- | --- |
| CC[C@H](C)[C@@H]1NC(=O)[C@H](CCC(N)=O)NC(=O)[C@H](CC(N)=O)NC(=O)[C@H](CO)NC(=O)[C@H](CC(N)=O)NC(=O)[C@@H](NC(=O)[C@@H](N)Cc2ccc(O)cc2)CSSC[C@@H](C(=O)O)NC1=O [YCNSNQIC] (H-YCNSNQIC-OH; disulfide 2-8) | inhibitory activity comparable to the cyclic peptide CNSNQIC | inhibitory activity comparable to the cyclic peptide CNSNQIC | inhibitory activity comparable to the cyclic peptide CNSNQIC | – |
| NSNQI [NSNQI] | – | – | This cyclic peptide showed significantly higher activity than the linear peptides | – |
| KNSNQI [KNSNQI] | – | – | This cyclic peptide showed significantly higher activity than the linear peptides | – |
| KNSNQ [KNSNQ] | – | – | This cyclic peptide showed significantly higher activity than the linear peptides | – |
| CC[C@H](C)[C@H](NC(=O)[C@H](CCC(N)=O)NC(=O)[C@H](CC(N)=O)NC(=O)[C@H](CO)NC(=O)[C@H](CC(N)=O)NC(=O)[C@@H](N)CS)C(=O)N[C@@H](CS)C(=O)O [linear CNSNQIC, CNSNQIC] (H-CNSNQIC-OH) | – | – | – | 1.0 |
